In paper PMC13498733:
Results are given in words; binding and its absence hold for the method and conditions named. In cells and extracts the contact can be indirect. A yes stands for co-enrichment or nearness to the bait. Other partners may have been found.

Chains of the proteins cited; added tags and fusions are not shown.
UniProt Q7TSJ2: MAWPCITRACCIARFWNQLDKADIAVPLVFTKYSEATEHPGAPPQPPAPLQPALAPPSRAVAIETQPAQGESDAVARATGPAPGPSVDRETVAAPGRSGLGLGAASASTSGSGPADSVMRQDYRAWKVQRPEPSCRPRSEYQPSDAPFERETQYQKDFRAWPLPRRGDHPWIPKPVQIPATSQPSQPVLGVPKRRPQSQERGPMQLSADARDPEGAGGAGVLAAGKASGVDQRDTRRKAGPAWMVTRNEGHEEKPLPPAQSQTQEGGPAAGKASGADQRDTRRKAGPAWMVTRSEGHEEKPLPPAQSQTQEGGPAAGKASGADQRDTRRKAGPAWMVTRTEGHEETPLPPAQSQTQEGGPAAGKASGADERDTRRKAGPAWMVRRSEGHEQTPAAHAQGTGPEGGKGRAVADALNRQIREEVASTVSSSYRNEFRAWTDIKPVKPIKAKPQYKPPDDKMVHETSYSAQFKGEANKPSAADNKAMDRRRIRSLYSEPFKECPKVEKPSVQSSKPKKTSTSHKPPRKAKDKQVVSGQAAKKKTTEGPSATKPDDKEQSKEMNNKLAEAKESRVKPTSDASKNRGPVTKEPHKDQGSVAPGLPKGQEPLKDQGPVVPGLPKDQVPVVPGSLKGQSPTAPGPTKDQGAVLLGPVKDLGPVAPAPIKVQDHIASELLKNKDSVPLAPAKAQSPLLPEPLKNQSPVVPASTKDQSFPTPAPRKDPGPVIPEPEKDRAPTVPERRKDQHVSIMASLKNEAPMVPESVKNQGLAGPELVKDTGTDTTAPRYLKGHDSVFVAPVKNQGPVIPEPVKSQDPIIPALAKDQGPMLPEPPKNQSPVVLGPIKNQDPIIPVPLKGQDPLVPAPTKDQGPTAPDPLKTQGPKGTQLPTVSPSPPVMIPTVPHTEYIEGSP
UniProt Q8C796: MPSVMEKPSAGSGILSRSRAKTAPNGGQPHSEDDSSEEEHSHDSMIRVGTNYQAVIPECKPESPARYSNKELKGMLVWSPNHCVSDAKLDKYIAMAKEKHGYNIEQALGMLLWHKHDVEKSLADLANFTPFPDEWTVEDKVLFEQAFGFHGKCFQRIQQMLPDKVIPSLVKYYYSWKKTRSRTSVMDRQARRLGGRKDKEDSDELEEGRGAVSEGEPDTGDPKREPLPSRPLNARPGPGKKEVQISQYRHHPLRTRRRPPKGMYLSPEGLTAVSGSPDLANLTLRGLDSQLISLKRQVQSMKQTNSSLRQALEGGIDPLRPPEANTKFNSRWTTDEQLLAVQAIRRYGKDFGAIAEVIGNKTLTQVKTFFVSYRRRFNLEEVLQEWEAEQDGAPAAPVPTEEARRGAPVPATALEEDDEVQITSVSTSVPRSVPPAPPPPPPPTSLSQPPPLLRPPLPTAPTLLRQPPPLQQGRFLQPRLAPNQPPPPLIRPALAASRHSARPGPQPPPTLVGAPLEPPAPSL
UniProt Q9UN81: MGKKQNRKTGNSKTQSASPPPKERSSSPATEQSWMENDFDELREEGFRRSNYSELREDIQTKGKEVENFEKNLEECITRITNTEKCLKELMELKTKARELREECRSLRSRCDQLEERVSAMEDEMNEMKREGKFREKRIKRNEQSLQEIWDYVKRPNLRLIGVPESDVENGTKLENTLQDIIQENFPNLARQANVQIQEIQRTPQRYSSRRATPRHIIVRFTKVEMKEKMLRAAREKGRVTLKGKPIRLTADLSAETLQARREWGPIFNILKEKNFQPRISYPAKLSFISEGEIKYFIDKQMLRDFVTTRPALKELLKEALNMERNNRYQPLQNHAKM
UniProt O75152: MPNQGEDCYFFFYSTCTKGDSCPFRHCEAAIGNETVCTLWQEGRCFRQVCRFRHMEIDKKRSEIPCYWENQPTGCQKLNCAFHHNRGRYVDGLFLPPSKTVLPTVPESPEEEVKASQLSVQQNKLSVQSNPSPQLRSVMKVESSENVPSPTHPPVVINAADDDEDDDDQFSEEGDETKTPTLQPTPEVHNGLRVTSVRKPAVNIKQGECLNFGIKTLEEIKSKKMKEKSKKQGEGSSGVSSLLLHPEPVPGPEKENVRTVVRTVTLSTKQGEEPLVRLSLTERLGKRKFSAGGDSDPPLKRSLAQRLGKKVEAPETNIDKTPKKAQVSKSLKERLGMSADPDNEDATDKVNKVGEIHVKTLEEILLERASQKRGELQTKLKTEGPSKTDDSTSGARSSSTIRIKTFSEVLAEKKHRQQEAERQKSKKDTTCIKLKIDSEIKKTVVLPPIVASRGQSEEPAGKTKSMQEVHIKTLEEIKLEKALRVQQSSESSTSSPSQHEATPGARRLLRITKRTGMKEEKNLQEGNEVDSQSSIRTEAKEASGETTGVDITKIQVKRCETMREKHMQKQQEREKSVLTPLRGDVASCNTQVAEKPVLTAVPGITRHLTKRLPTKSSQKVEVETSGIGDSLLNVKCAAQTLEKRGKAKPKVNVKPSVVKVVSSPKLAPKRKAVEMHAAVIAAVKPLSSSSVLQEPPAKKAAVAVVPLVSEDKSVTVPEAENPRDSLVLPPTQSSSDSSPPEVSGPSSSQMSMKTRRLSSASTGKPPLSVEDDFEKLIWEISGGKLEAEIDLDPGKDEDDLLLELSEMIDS
UniProt Q96IZ0: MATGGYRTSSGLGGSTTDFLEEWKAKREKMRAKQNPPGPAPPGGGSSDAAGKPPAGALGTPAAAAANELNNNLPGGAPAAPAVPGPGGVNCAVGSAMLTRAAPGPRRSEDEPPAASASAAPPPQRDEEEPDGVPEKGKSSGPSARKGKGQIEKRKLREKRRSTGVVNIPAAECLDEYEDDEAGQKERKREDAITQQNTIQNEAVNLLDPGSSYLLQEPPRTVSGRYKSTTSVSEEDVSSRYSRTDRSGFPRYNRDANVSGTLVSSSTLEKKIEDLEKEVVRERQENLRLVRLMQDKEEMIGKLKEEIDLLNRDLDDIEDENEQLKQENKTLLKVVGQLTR
UniProt P51114: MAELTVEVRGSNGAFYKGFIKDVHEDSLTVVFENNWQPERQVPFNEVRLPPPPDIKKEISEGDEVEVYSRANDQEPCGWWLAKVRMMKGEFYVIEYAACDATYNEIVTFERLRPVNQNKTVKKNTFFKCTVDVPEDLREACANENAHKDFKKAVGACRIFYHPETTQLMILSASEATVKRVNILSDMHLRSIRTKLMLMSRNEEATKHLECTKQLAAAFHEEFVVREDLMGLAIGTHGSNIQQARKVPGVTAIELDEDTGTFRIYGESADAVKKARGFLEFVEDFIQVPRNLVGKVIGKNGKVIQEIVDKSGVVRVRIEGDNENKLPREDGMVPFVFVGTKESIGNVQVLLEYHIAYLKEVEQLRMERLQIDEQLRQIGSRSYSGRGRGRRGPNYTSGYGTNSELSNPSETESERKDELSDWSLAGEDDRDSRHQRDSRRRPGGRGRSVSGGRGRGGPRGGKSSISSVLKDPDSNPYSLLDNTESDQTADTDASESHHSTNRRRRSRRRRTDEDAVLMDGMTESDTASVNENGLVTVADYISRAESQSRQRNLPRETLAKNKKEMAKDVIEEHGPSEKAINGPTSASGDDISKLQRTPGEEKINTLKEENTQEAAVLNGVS
UniProt Q9HC52: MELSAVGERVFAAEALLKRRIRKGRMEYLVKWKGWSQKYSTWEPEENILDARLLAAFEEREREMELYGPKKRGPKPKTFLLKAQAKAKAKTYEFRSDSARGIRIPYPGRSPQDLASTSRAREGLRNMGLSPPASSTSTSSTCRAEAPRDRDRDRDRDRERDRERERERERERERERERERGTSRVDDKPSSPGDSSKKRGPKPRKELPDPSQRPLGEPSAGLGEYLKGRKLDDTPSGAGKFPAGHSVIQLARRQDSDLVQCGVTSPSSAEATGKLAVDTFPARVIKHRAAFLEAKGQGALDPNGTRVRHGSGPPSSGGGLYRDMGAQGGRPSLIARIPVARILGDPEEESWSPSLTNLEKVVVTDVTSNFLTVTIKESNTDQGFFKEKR
UniProt Q7Z460: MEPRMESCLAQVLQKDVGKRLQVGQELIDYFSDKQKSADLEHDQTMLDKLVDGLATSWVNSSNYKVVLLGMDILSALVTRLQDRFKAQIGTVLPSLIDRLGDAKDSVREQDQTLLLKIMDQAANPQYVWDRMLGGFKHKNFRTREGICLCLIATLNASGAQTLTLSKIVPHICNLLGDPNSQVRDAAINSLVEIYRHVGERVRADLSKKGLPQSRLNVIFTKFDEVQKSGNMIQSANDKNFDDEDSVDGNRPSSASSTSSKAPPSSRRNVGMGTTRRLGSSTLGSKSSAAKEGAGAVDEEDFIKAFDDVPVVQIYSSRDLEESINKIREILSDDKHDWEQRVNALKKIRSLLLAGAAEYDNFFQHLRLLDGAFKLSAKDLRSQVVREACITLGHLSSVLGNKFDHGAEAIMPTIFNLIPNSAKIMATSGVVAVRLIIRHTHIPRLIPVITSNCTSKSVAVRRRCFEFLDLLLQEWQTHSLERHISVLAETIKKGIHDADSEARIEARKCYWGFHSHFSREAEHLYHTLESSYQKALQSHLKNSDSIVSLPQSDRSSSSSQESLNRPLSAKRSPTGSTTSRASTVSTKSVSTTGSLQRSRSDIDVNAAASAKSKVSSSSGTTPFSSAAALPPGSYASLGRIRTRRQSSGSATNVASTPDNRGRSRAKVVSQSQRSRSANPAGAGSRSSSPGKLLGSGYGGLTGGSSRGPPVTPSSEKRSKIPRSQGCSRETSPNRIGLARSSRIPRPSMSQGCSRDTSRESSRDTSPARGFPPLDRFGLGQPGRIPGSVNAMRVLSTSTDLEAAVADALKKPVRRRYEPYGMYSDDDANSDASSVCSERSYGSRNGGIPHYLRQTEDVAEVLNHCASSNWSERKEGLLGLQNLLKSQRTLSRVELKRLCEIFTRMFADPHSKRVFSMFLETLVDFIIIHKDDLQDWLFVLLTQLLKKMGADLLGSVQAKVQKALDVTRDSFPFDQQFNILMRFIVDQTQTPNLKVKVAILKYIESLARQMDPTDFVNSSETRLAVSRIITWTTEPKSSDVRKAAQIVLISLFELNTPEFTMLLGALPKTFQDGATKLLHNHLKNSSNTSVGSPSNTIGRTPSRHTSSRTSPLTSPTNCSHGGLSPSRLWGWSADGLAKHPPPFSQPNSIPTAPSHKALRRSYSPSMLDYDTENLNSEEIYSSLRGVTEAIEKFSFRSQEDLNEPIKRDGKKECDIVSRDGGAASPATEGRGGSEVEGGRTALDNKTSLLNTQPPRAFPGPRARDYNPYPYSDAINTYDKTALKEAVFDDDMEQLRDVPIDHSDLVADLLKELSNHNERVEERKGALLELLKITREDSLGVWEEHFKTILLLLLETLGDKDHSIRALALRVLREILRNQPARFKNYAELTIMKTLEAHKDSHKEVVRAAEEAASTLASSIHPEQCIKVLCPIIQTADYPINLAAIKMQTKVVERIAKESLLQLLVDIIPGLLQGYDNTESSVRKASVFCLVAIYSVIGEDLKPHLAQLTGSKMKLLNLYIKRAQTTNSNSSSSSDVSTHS
UniProt Q9NYF8: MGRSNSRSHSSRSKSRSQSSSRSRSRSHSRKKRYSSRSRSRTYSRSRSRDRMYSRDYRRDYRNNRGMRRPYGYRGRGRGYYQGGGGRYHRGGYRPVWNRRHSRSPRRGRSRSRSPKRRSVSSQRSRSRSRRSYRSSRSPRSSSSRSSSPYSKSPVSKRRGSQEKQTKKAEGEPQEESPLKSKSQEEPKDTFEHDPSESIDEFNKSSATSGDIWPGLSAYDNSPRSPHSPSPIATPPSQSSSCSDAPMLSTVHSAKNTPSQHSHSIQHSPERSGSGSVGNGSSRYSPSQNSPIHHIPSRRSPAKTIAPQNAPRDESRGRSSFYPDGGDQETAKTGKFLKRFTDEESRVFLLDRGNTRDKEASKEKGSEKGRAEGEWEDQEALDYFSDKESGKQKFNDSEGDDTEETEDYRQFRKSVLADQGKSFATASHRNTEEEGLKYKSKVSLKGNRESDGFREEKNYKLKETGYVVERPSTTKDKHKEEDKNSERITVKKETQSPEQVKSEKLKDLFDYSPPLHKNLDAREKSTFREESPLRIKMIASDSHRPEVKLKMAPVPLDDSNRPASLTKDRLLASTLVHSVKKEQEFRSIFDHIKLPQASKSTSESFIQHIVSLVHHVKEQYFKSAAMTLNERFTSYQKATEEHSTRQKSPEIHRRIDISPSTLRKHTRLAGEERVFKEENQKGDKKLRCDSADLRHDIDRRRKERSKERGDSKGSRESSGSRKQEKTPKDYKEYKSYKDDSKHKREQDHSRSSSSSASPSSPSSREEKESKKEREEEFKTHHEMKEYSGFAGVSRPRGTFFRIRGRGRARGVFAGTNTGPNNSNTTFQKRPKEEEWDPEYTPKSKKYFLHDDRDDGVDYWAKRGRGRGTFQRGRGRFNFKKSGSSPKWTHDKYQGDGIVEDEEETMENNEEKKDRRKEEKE

molecular target: LINE-1 ORF1p (mouse) (mouse (endogenous in MN9D)) (UniProt P11260); test: affinity purification with mass spectrometry; IP of endogenous ORF1p with antibody-coupled Dynabeads from sonicated lysate of differentiated MN9D neurons (day 10), against rabbit IgG, n = 5 IPs; 10 mM Tris HCl pH 8, 150 mM NaCl, overnight 4°C; on-bead digest, LC-MS/MS (DIA), label-free quantification; ratio ≥2, P ≤0.05

| binding | Molecule |
| --- | --- |
| binds | ARID1A (mouse) (from UniProt A2BH40 1-2283) |
| binds | ELAVL2 (mouse) (from UniProt Q60899 1-360) |
| binds | HELZ (mouse) (from UniProt Q6DFV5 1-1964) |
| binds | MAP1B (mouse) (from UniProt P14873 1-2464) |
| binds | ZFHX3 (mouse) (from UniProt Q61329 1-3726) |
| binds | POLR2M (mouse) (from UniProt Q6P6I6 1-366) |

Continued, molecule first:

| Molecule | binding |
| --- | --- |
| IGF2BP3 (mouse) (from UniProt Q9CPN8 1-579) | binds |
| CLASP1 (mouse) (from UniProt Q80TV8 1-1535) | binds |
| MAP6 (mouse) (from UniProt Q7TSJ2 1-906) | binds |
| ZNF638 (mouse) (from UniProt Q61464 1-1960) | binds |
| KPNA3 (mouse) (from UniProt O35344 1-521) | binds |
| KHDRBS1 (mouse) (from UniProt Q60749 1-443) | binds |
| FXR1 (mouse) (from UniProt Q61584 1-677) | binds |
| ARID1B (mouse) (from UniProt E9Q4N7 1-2306) | binds |
| RCOR2 (corepressor 2 of REST) (mouse) (from UniProt Q8C796 1-523) | binds |

molecular target: LINE-1 ORF1p (human) (human (endogenous in LUHMES)) (UniProt Q9UN81); test: affinity purification with mass spectrometry; IP of endogenous ORF1p with antibody-coupled Dynabeads from sonicated lysate of differentiated LUHMES neurons (day 5), against rabbit IgG, n = 5 IPs; 10 mM Tris HCl pH 8, 150 mM NaCl, overnight 4°C; on-bead digest, LC-MS/MS (DDA), label-free quantification; fold change ≥2, P ≤0.05

| binding | Molecule |
| --- | --- |
| binds | MACROH2A1 (human) (from UniProt O75367 1-369) |
| binds | ZC3H11A (human) (from UniProt O75152 1-810) |
| binds | CTNNB1 (human) (from UniProt P35222 1-781) |
| binds | PAWR (human) (from UniProt Q96IZ0 1-340) |
| binds | FXR1 (human) (from UniProt P51114 1-621) |
| binds | CBX8 (human) (from UniProt Q9HC52 1-389) |
| binds | TFAP2D (human) (from UniProt Q7Z6R9 1-452) |
| binds | DPF2 (human) (from UniProt Q92785 1-391) |
| binds | IGF2BP3 (human) (from UniProt O00425 1-579) |
| binds | PRKRA (human) (protein, UniProt O75569 1-313) MSQSRHRAEAPPLEREDSGTFSLGKMITAKPGKTPIQVLHEYGMKTKNIPVYECERSDVQIHVPTFTFRVTVGDITCTGEGTSKKLAKHRAAEAAINILKANASICFAVPDPLMPDPSKQPKNQLNPIGSLQELAIHHGWRLPEYTLSQEGGPAHKREYTTICRLESFMETGKGASKKQAKRNAAEKFLAKFSNISPENHISLTNVVGHSLGCTWHSLRNSPGEKINLLKRSLLSIPNTDYIQLLSEIAKEQGFNITYLDIDELSANGQYQCLAELSTSPITVCHGSGISCGNAQSDAAHNALQYLKIIAERK |
| binds | SNW1 (human) (protein, UniProt Q13573 1-536) MALTSFLPAPTQLSQDQLEAEEKARSQRSRQTSLVSSRREPPPYGYRKGWIPRLLEDFGDGGAFPEIHVAQYPLDMGRKKKMSNALAIQVDSEGKIKYDAIARQGQSKDKVIYSKYTDLVPKEVMNADDPDLQRPDEEAIKEITEKTRVALEKSVSQKVAAAMPVRAADKLAPAQYIRYTPSQQGVAFNSGAKQRVIRMVEMQKDPMEPPRFKINKKIPRGPPSPPAPVMHSPSRKMTVKEQQEWKIPPCISNWKNAKGYTIPLDKRLAADGRGLQTVHINENFAKLAEALYIADRKAREAVEMRAQVERKMAQKEKEKHEEKLREMAQKARERRAGIKTHVEKEDGEARERDEIRHDRRKERQHDRNLSRAAPDKRSKLQRNENRDISEVIALGVPNPRTSNEVQYDQRLFNQSKGMDSGFAGGEDEIYNVYDQAWRGGKDMAQSIYRPSKNLDKDMYGDDLEARIKTNRFVPDKEFSGSDRRQRGREGPVQFEEDPFGLDKFLEEAKQHGGSKRPSDSSRPKEHEHEGKKRRKE |

Second part, the molecule before the results:

| Molecule | binding |
| --- | --- |
| SMARCA4 (human) (from UniProt P51532 1-1647) | binds |
| NUMA1 (human) (from UniProt Q14980 1-2115) | binds |
| XRCC6 (Ku70) (human) (from UniProt P12956 1-609) | binds |
| PSIP1 (human) (from UniProt O75475 1-530) | binds |
| CHD4 (human) (from UniProt Q14839 1-1912) | binds |
| NUP153 (human) (from UniProt P49790 1-1475) | binds |
| RCOR2 (corepressor 2 of REST) (human) (from UniProt Q8IZ40 1-523) | binds |
| ATXN2 (human) (from UniProt Q99700 1-1313) | binds |
| TOP2B (human) (from UniProt Q02880 1-1626) | binds |
| TP53BP1 (human) (from UniProt Q12888 1-1972) | binds |
| MACROH2A2 (human) (from UniProt Q9P0M6 1-372) | binds |
| GSN (human) (from UniProt P06396 28-782) | binds |
| UBAP2L (human) (from UniProt Q14157 1-1087) | binds |
| MAP1B (human) (from UniProt P46821 1-2468) | binds |
| FXR2 (human) (from UniProt P51116 1-673) | binds |
| SUPT16H (human) (from UniProt Q9Y5B9 1-1047) | binds |
| RANBP2 (human) (from UniProt P49792 1-3224) | binds |
| CLASP1 (human) (from UniProt Q7Z460 1-1538) | binds |
| MAP6 (human) (from UniProt Q96JE9 1-813) | binds |
| BCLAF1 (human) (from UniProt Q9NYF8 1-920) | binds |
| MYH9 (human) (from UniProt P35579 1-1960) | binds |
| LBR (human) (from UniProt Q14739 1-615) | binds |
| LMNA (human) (from UniProt P02545 1-646) | binds |
| MLF2 (human) (protein, UniProt Q15773 1-248) MFRFMRDVEPEDPMFLMDPFAIHRQHMSRMLSGGFGYSPFLSITDGNMPGTRPASRRMQQAGAVSPFGMLGMSGGFMDMFGMMNDMIGNMEHMTAGGNCQTFSSSTVISYSNTGDGAPKVYQETSEMRSAPGGIRETRRTVRDSDSGLEQMSIGHHIRDRAHILQRSRNHRTGDQEERQDYINLDESEAAAFDDEWRRETSRFRQQRPLEFRRLESSGAGGRRAEGPPRLAIQGPEDSPSRQSRRYDW | binds |
| THRAP3 (human) (protein, UniProt Q9Y2W1 1-955) MSKTNKSKSGSRSSRSRSASRSRSRSFSKSRSRSRSLSRSRKRRLSSRSRSRSYSPAHNRERNHPRVYQNRDFRGHNRGYRRPYYFRGRNRGFYPWGQYNRGGYGNYRSNWQNYRQAYSPRRGRSRSRSPKRRSPSPRSRSHSRNSDKSSSDRSRRSSSSRSSSNHSRVESSKRKSAKEKKSSSKDSRPSQAAGDNQGDEAKEQTFSGGTSQDTKASESSKPWPDATYGTGSASRASAVSELSPRERSPALKSPLQSVVVRRRSPRPSPVPKPSPPLSSTSQMGSTLPSGAGYQSGTHQGQFDHGSGSLSPSKKSPVGKSPPSTGSTYGSSQKEESAASGGAAYTKRYLEEQKTENGKDKEQKQTNTDKEKIKEKGSFSDTGLGDGKMKSDSFAPKTDSEKPFRGSQSPKRYKLRDDFEKKMADFHKEEMDDQDKDKAKGRKESEFDDEPKFMSKVIGANKNQEEEKSGKWEGLVYAPPGKEKQRKTEELEEESFPERSKKEDRGKRSEGGHRGFVPEKNFRVTAYKAVQEKSSSPPPRKTSESRDKLGAKGDFPTGKSSFSITREAQVNVRMDSFDEDLARPSGLLAQERKLCRDLVHSNKKEQEFRSIFQHIQSAQSQRSPSELFAQHIVTIVHHVKEHHFGSSGMTLHERFTKYLKRGTEQEAAKNKKSPEIHRRIDISPSTFRKHGLAHDEMKSPREPGYKAEGKYKDDPVDLRLDIERRKKHKERDLKRGKSRESVDSRDSSHSRERSAEKTEKTHKGSKKQKKHRRARDRSRSSSSSSQSSHSYKAEEYTEETEEREESTTGFDKSRLGTKDFVGPSERGGGRARGTFQFRARGRGWGRGNYSGNNNNNSNNDFQKRNREEEWDPEYTPKSKKYYLHDDREGEGSDKWVSRGRGRGAFPRGRGRFMFRKSSTSPKWAHDKFSGEEGEIEDDESGTENREEKDNIQPTTE | binds |
| MORC2 (human) (protein, UniProt Q9Y6X9 1-1032) MAFTNYSSLNRAQLTFEYLHTNSTTHEFLFGALAELVDNARDADATRIDIYAERREDLRGGFMLCFLDDGAGMDPSDAASVIQFGKSAKRTPESTQIGQYGNGLKSGSMRIGKDFILFTKKEDTMTCLFLSRTFHEEEGIDEVIVPLPTWNARTREPVTDNVEKFAIETELIYKYSPFRTEEEVMTQFMKIPGDSGTLVIIFNLKLMDNGEPELDIISNPRDIQMAETSPEGTKPERRSFRAYAAVLYIDPRMRIFIHGHKVQTKRLSCCLYKPRMYKYTSSRFKTRAEQEVKKAEHVARIAEEKAREAESKARTLEVRLGGDLTRDSRVMLRQVQNRAITLRREADVKKRIKEAKQRALKEPKELNFVFGVNIEHRDLDGMFIYNCSRLIKMYEKVGPQLEGGMACGGVVGVVDVPYLVLEPTHNKQDFADAKEYRHLLRAMGEHLAQYWKDIAIAQRGIIKFWDEFGYLSANWNQPPSSELRYKRRRAMEIPTTIQCDLCLKWRTLPFQLSSVEKDYPDTWVCSMNPDPEQDRCEASEQKQKVPLGTFRKDMKTQEEKQKQLTEKIRQQQEKLEALQKTTPIRSQADLKKLPLEVTTRPSTEEPVRRPQRPRSPPLPAVIRNAPSRPPSLPTPRPASQPRKAPVISSTPKLPALAAREEASTSRLLQPPEAPRKPANTLVKTASRPAPLVQQLSPSLLPNSKSPREVPSPKVIKTPVVKKTESPIKLSPATPSRKRSVAVSDEEEVEEEAERRKERCKRGRFVVKEEKKDSNELSDSAGEEDSADLKRAQKDKGLHVEVRVNREWYTGRVTAVEVGKHVVRWKVKFDYVPTDTTPRDRWVEKGSEDVRLMKPPSPEHQSLDTQQEGGEEEVGPVAQQAIAVAEPSTSECLRIEPDTTALSTNHETIDLLVQILRNCLRYFLPPSFPISKKQLSAMNSDELISFPLKEYFKQYEVGLQNLCNSYQSRADSRAKASEESLRTSERKLRETEEKLQKLRTNIVALLQKVQEDIDINTDDELDAYIEDLITKGD | binds |
